Assay results as given in ChEMBL document CHEMBL4043290, “Structure-based Design of Pyridone-Aminal eFT508 Targeting Dysregulated Translation by Selective Mitogen-activated Protein Kinase Interacting Kinases 1 and 2 (MNK1/2) Inhibition” (J Med Chem, 2018).

Assay: physchem
Conditions: octanol/water

Cc1cc(Nc2cc(N)ncn2)c(=O)n2c1C(=O)NC21CCC(F)(F)CC1
logP: 2.4
